From patent US20250257123A1
Results are given in words; binding and its absence hold for the method and conditions named. Some binding calls cover weakened binding; strength is not graded here.

Key:
human Gremlin-2 (human) [1] = target: T1, human Gremlin-2 (human) (UniProt Q9H772); test: ELISA, coated antigen, anti-human IgG4-HRP, OD 492 nm (FIG. 2A)
T1 sequence: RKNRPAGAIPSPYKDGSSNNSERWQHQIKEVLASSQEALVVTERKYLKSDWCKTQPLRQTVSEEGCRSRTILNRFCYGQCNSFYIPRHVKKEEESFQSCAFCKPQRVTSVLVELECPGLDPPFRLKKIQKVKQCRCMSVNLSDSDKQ

human Gremlin-1 (human) [2] = target: T2, human Gremlin-1 (human) (UniProt O60565); test: as above
T2 sequence: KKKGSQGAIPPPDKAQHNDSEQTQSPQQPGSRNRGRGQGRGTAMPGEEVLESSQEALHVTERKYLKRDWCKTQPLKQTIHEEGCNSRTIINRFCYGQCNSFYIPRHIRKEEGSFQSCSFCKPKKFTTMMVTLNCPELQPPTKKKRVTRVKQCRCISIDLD

human Gremlin-2 (human) [3] = target: T1, human Gremlin-2 (human); test: ELISA (FIG. 2A)
human Gremlin-1 (human) [4] = target: T2, human Gremlin-1 (human); test: ELISA (FIG. 2A)

Measured: binding

B1: humanized 14-D10-2 variant Var_3 (antibody, human IgG4, V domains shown)
VH: EVQLVQSGPEVVKPGASVKVSCKASGYSFTGYYMHWVRQAPGQGLEWMGYFFPYNGFSNYAQKFQGRVTLTVDKSKSTAYMELSRLRSEDTATYYCARGGLGRGYFDVWGQGTLVTVSS
VL: DIQMTQSPSSLSASLGDRVTITCKASDHINNWLAWYQQKPGKAPRLLISGATSLETGVPSRFSGSGSGTDYTLTISSLQPEDVATYYCQQYWSSPRTFGGGTKLEIK
binds: all assays above

B2: humanized 14-D10-2 variant Var_13 (antibody, human IgG4, V domains shown)
VH: EVQLVQSGPEVVKPGASVKVSCKASGYSFTGYYMHWVKQAPGQGLEWMGYFFPYSGFSNYAQKFQGRVTLTVDKSISTAYMELSRLRSEDTAVYYCARGGLGRGYFDVWGQGTLVTVSS
VL: DIQMTQSPSSLSASLGDRVTITCKASDHISNWLAWYQQKPGKAPRLLISGATSLETGVPSRFSGSGSGTDYTLTISSLQPEDVATYYCQQYWSSPRTFGGGTKLEIK
binds: all assays above

B3: humanized 14-D10-2 variant Var_5 (antibody, human IgG4, V domains shown)
VH: EVQLVQSGPEVVKPGASVKVSCKASGYSFTGYYMHWVKQAPGQGLEWMGYFFPYSGFSNYAQKFQGRVTLTVDKSISTAYMELSRLRSEDTAVYYCARGGLGRGYFDVWGQGTLVTVSS
VL: DIQMTQSPSSLSASLGDRVTITCKASDHINNWLAWYQQKPGKAPRLLISGATSLETGVPSRFSGSGSGTDYTLTISSLQPEDVATYYCQQYWSSPRTFGGGTKLEIK
binds: all assays above

B4: chimeric antibody control (chimeric 14-D10-2) (antibody, V domains shown, not shown: a dimerising Fc or GST; large carriers)
VH: EVQLQQSGPELVKPGASVKISCKASGYSFTGYYMHWVKQSHGNILDWIGYFFPYNGFSNCNQKFKGKATLTVDKSSSTAYMELRSLTSEDSAVYYCARGGLGRGYFDVWGTGTTVTVSS
VL: DIQMTQSPSYLSVSLGGRVTITCKASDHINNWLAWYQQKPGNAPRLLISGATSLETGVPSRFSGSGSGKDYTLSITSLQTEDVATYYCQQYWSSPRTFGGGTKLEIK
binds: human Gremlin-2 (human) [3] | human Gremlin-1 (human) [4]

B5: humanized 14-D10-2 variant Var_7 (antibody, human IgG4, V domains shown)
VH: EVQLVQSGPEVVKPGASVKVSCKASGYSFTGYYMHWVRQAPGQGLEWMGYFFPYSGFSNYAQKFQGRVTLTVDKSKSTAYMELSRLRSEDTATYYCARGGLGRGYFDVWGQGTLVTVSS
VL: DIQMTQSPSSLSASLGDRVTITCKASDHINNWLAWYQQKPGKAPRLLISGATSLETGVPSRFSGSGSGTDYTLTISSLQPEDVATYYCQQYWSSPRTFGGGTKLEIK
binds: all assays above

B6: humanized 14-D10-2 variant Var_11 (antibody, human IgG4, V domains shown)
VH: EVQLVQSGPEVVKPGASVKVSCKASGYSFTGYYMHWVRQAPGQGLEWMGYFFPYNGFSNYAQKFQGRVTLTVDKSKSTAYMELSRLRSEDTATYYCARGGLGRGYFDVWGQGTLVTVSS
VL: DIQMTQSPSSLSASLGDRVTITCKASDHISNWLAWYQQKPGKAPRLLISGATSLETGVPSRFSGSGSGTDYTLTISSLQPEDVATYYCQQYWSSPRTFGGGTKLEIK
binds: all assays above
